Experimental data reported in the supplement of paper PMC7661543.
The effect of the compound repeats well; differences between the knockouts mostly do not. Where a SMILES comes first, the peptide text is derived from it. The star is where a group is joined. Cbz = O=C(OCc1ccccc1)*

Tested on: SKBR3
Test: relative cell number vs DMSO control (72 h) (% of DMSO); higher = less growth inhibition (more cells)
Protocol: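 QMAP-Seq: a pool of 5 breast cancer cell lines (ZR-75-1, SKBR3, HCC-38, MDA-MB-231, BT-20), each carrying 12 doxycycline-inducible Cas9 sgRNA perturbations (11 knockouts plus non-targeting sgNT), was treated with compounds for 72 h at four 10-fold doses (10 nM-10 uM or 1 nM-1 uM range). Barcodes were amplified and sequenced, and cell number was interpolated from 293T spike-in standard curves. The result is expressed as % of the median of DMSO wells. Two biological replicates.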

Cc1cc2c(F)c(Oc3ncnn4cc(OC[C@@H](C)O)c(C)c34)ccc2[nH]1 [Brivanib]
Details	relative cell number
sgRNA knockout: sgATF3, 10 nM	89.4
sgRNA knockout: sgATF3, 100 nM	88.5
sgRNA knockout: sgATF3, 1000 nM	83.3
sgRNA knockout: sgATF3, 10000 nM	82.4
sgRNA knockout: sgATF4, 10 nM	111
sgRNA knockout: sgATF4, 100 nM	81.8
sgRNA knockout: sgATF4, 1000 nM	88.7
sgRNA knockout: sgATF4, 10000 nM	80.97
sgRNA knockout: sgATF6, 10 nM	92
sgRNA knockout: sgATF6, 100 nM	83.4
sgRNA knockout: sgATF6, 1000 nM	107
sgRNA knockout: sgATF6, 10000 nM	70.8
sgRNA knockout: sgATG7, 10 nM	108
sgRNA knockout: sgATG7, 100 nM	89.1
sgRNA knockout: sgATG7, 1000 nM	110
sgRNA knockout: sgATG7, 10000 nM	81.8
sgRNA knockout: sgERN1, 10 nM	78.9
sgRNA knockout: sgERN1, 100 nM	71.3
sgRNA knockout: sgERN1, 1000 nM	111
sgRNA knockout: sgERN1, 10000 nM	66.6
sgRNA knockout: sgHSF1, 10 nM	95
sgRNA knockout: sgHSF1, 100 nM	79.1
sgRNA knockout: sgHSF1, 1000 nM	100
sgRNA knockout: sgHSF1, 10000 nM	76.5
sgRNA knockout: sgHSF2, 10 nM	94.2
sgRNA knockout: sgHSF2, 100 nM	75.9
sgRNA knockout: sgHSF2, 1000 nM	107
sgRNA knockout: sgHSF2, 10000 nM	73.1
sgRNA knockout: sgKEAP1, 10 nM	97.3
sgRNA knockout: sgKEAP1, 100 nM	79.3
sgRNA knockout: sgKEAP1, 1000 nM	83.4
sgRNA knockout: sgKEAP1, 10000 nM	64.5
sgRNA knockout: sgNFE2L2, 10 nM	99.3
sgRNA knockout: sgNFE2L2, 100 nM	70.2
sgRNA knockout: sgNFE2L2, 1000 nM	94.5
sgRNA knockout: sgNFE2L2, 10000 nM	89.3
sgRNA knockout: sgSLC35F2, 10 nM	106
sgRNA knockout: sgSLC35F2, 100 nM	80
sgRNA knockout: sgSLC35F2, 1000 nM	81.1
sgRNA knockout: sgSLC35F2, 10000 nM	68.1
sgRNA knockout: sgXBP1, 10 nM	93.2
sgRNA knockout: sgXBP1, 100 nM	73.7
sgRNA knockout: sgXBP1, 1000 nM	113
sgRNA knockout: sgXBP1, 10000 nM	83

OCCn1cc(-c2ccc3c(c2)CC/C3=N\O)c(-c2ccncc2)n1 [GDC0879]
Details	relative cell number
sgRNA knockout: sgATF3, 10 nM	106
sgRNA knockout: sgATF3, 100 nM	98.8
sgRNA knockout: sgATF3, 1000 nM	116
sgRNA knockout: sgATF3, 10000 nM	109
sgRNA knockout: sgATF4, 10 nM	111
sgRNA knockout: sgATF4, 100 nM	105
sgRNA knockout: sgATF4, 1000 nM	94.5
sgRNA knockout: sgATF4, 10000 nM	97.5
sgRNA knockout: sgATF6, 10 nM	88.58
sgRNA knockout: sgATF6, 100 nM	116
sgRNA knockout: sgATF6, 1000 nM	93.4
sgRNA knockout: sgATF6, 10000 nM	97.1
sgRNA knockout: sgATG7, 10 nM	93.4
sgRNA knockout: sgATG7, 100 nM	102
sgRNA knockout: sgATG7, 1000 nM	112
sgRNA knockout: sgATG7, 10000 nM	108
sgRNA knockout: sgERN1, 10 nM	122
sgRNA knockout: sgERN1, 100 nM	130
sgRNA knockout: sgERN1, 1000 nM	117.5
sgRNA knockout: sgERN1, 10000 nM	103
sgRNA knockout: sgHSF1, 10 nM	110
sgRNA knockout: sgHSF1, 100 nM	121
sgRNA knockout: sgHSF1, 1000 nM	114
sgRNA knockout: sgHSF1, 10000 nM	86.2
sgRNA knockout: sgHSF2, 10 nM	83.7
sgRNA knockout: sgHSF2, 100 nM	104
sgRNA knockout: sgHSF2, 1000 nM	81.7
sgRNA knockout: sgHSF2, 10000 nM	98.7
sgRNA knockout: sgKEAP1, 10 nM	87.4
sgRNA knockout: sgKEAP1, 100 nM	106
sgRNA knockout: sgKEAP1, 1000 nM	99.5
sgRNA knockout: sgKEAP1, 10000 nM	95.7
sgRNA knockout: sgNFE2L2, 10 nM	89.7
sgRNA knockout: sgNFE2L2, 100 nM	103
sgRNA knockout: sgNFE2L2, 1000 nM	110
sgRNA knockout: sgNFE2L2, 10000 nM	104
sgRNA knockout: sgSLC35F2, 10 nM	103
sgRNA knockout: sgSLC35F2, 100 nM	101
sgRNA knockout: sgSLC35F2, 1000 nM	92.3
sgRNA knockout: sgSLC35F2, 10000 nM	101
sgRNA knockout: sgXBP1, 10 nM	124
sgRNA knockout: sgXBP1, 100 nM	96.1
sgRNA knockout: sgXBP1, 1000 nM	111
sgRNA knockout: sgXBP1, 10000 nM	104

CC(C)C[C@@H](C=O)NC(=O)[C@H](CC(C)C)NC(=O)[C@H](CC(C)C)NC(=O)OCc1ccccc1 [MG132] (Cbz-Leu-Leu-Leu-aldehyde)
Details	relative cell number
sgRNA knockout: sgATF3, 10 nM	107
sgRNA knockout: sgATF3, 100 nM	89.8
sgRNA knockout: sgATF3, 1000 nM	13.8
sgRNA knockout: sgATF3, 10000 nM	9.7
sgRNA knockout: sgATF4, 10 nM	101
sgRNA knockout: sgATF4, 100 nM	104
sgRNA knockout: sgATF4, 1000 nM	12.8
sgRNA knockout: sgATF4, 10000 nM	9.94
sgRNA knockout: sgATF6, 10 nM	99.1
sgRNA knockout: sgATF6, 100 nM	86.5
sgRNA knockout: sgATF6, 1000 nM	11
sgRNA knockout: sgATF6, 10000 nM	6.68
sgRNA knockout: sgATG7, 10 nM	81.2
sgRNA knockout: sgATG7, 100 nM	107
sgRNA knockout: sgATG7, 1000 nM	15.6
sgRNA knockout: sgATG7, 10000 nM	10.9
sgRNA knockout: sgERN1, 10 nM	99.9
sgRNA knockout: sgERN1, 100 nM	106
sgRNA knockout: sgERN1, 1000 nM	14.8
sgRNA knockout: sgERN1, 10000 nM	8.35
sgRNA knockout: sgHSF1, 10 nM	98.648
sgRNA knockout: sgHSF1, 100 nM	90.1
sgRNA knockout: sgHSF1, 1000 nM	12.1
sgRNA knockout: sgHSF1, 10000 nM	8.94
sgRNA knockout: sgHSF2, 10 nM	89.8
sgRNA knockout: sgHSF2, 100 nM	83.2
sgRNA knockout: sgHSF2, 1000 nM	11.5
sgRNA knockout: sgHSF2, 10000 nM	11.6
sgRNA knockout: sgKEAP1, 10 nM	88.32
sgRNA knockout: sgKEAP1, 100 nM	88.9
sgRNA knockout: sgKEAP1, 1000 nM	11.6
sgRNA knockout: sgKEAP1, 10000 nM	8.84
sgRNA knockout: sgNFE2L2, 10 nM	92.6
sgRNA knockout: sgNFE2L2, 100 nM	87.4
sgRNA knockout: sgNFE2L2, 1000 nM	14.7
sgRNA knockout: sgNFE2L2, 10000 nM	7.913
sgRNA knockout: sgSLC35F2, 10 nM	92.2
sgRNA knockout: sgSLC35F2, 100 nM	93.3
sgRNA knockout: sgSLC35F2, 1000 nM	12.4
sgRNA knockout: sgSLC35F2, 10000 nM	6.88
sgRNA knockout: sgXBP1, 10 nM	108
sgRNA knockout: sgXBP1, 100 nM	81.3
sgRNA knockout: sgXBP1, 1000 nM	14.7
sgRNA knockout: sgXBP1, 10000 nM	11.5
